66 compounds from the supplement of paper PMC8616043 can be followed below.

Where a name gives a salt, the structure may show the parent alone. The list shows a part of the results. Repeats in this data set agree poorly, so a single value says little.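 The cells are human U-2 OS cells that stably carry a GFP sensor with a nuclear import signal and a classical export signal. They were transfected to make PR50, a 50-repeat proline–arginine dipeptide protein from the ALS/FTD gene C9ORF72. Each well's nuclear-minus-cytoplasm GFP signal was scaled from in-plate DMSO (low) to PR-only wells (high), then scored against the other test wells on the plate; compounds scoring well below zero were called hits that reverse the PR effect.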

For this assay, the system named is U-2 OS NCT-C biosensor cells expressing PR50. Description: Z-score of normalised NCT-C biosensor translocation index in PR50-expressing cells; higher = more nuclear biosensor (more disrupted nuclear export). The note with it: 3 µM; 24 h.
Turning to `N[C@@H](CS(=O)O)C(=O)O` [L-Cysteinesulfinic Acid], the Z-score is inactive: -0.0364. Take `C[N+](C)(C)CC(=O)O` [Betaine]: the Z-score was inactive: -0.12.

On to `C[N+](C)(C)CC(=O)O` [Betaine hydrochloride], for which the Z-score was inactive: 1.85.

`Cc1nc(C(=O)N2CCC[C@H]2Cc2nnc(-c3ccccc3)o2)c(-c2ccccc2F)s1`: the Z-score is inactive: -0.0819. Under `CC[C@H](CO)Nc1nc(NCc2ccccc2)c2ncn(C(C)C)c2n1` [Roscovitine] stands inactive: 0.25; under `OCCN(CCO)c1nc(N2CCCCC2)c2nc(N(CCO)CCO)nc(N3CCCCC3)c2n1` [Dipyridamole], inactive: 0.526; under `COC(=O)[C@@H]1CC2=CC(=O)CC[C@]2(C)[C@@]23O[C@@H]2C[C@@]2(C)[C@@H](CC[C@@]24CCC(=O)O4)[C@H]13` [Eplerenone], inactive: 0.209.

As to `NO` [Hydroxylamine hydrochloride], the Z-score was inactive: 0.017. Consider `Nc1nc(Cl)nc2c1ncn2[C@@H]1O[C@H](CO)[C@@H](O)[C@H]1O` [2-Chloroadenosine], for which the Z-score was inactive: -0.55. In the case of `Nc1cc(Cl)c(NC2=NCCN2)c(Cl)c1` [p-Aminoclonidine hydrochloride], the Z-score is inactive: -0.0834.

Consider `CNC(=O)c1cc(Oc2ccc(NC(=O)Nc3ccc(Cl)c(C(F)(F)F)c3)cc2)ccn1` [Sorafenib Tosylate], for which the Z-score is inactive: -0.795. Under `COc1cccc2c1C(=O)c1c(O)c3c(c(O)c1C2=O)C[C@@](O)(C(C)=O)C[C@@H]3O[C@H]1C[C@H](N)[C@H](O)[C@H](C)O1` [Daunorubicin] stands inactive: -0.45. Under `O=C(Nc1cccc(C(=O)Nc2ccc(S(=O)(=O)O)c3cc(S(=O)(=O)O)cc(S(=O)(=O)O)c23)c1)Nc1cccc(C(=O)Nc2ccc(S(=O)(=O)O)c3cc(S(=O)(=O)O)cc(S(=O)(=O)O)c23)c1` stands inactive: -0.319; under `COc1cc(-c2oc3cc(O)cc(O)c3c(=O)c2O)ccc1O` [Isorhamnetine], inactive: 0.806; under `Cc1cn([C@H]2C=C[C@@H](CO)O2)c(=O)[nH]c1=O` [Stavudine], inactive: 0.109.

Take `C=C1CC[C@@H]2[C@](C)(CO)[C@H](O)CC[C@@]2(C)[C@@H]1C/C=C1/C(=O)OC[C@H]1O` [Andrographolide]: the Z-score was inactive: 0.4.

In the case of `CCCCCCCCCCCCC/C=C/[C@@H](O)[C@H](CO)NC(=O)CCCCC` [C6 Ceramide], the Z-score was inactive: -0.224. As to `Nc1ncnc2c1nc(Br)n2C1OC2COP(=O)(O)O[C@@H]2C1O` (stereo partly specified) [8-Bromo-cAMP sodium], the Z-score is inactive: 3.16. On to `CN1C(CCl)Nc2cc(Cl)c(S(N)(=O)=O)cc2S1(=O)=O` (stereo unspecified) [Methyclothiazide], for which the Z-score was inactive: -0.498. Under `C=CC1=C(C(=O)O)N2C(=O)[C@@H](NC(=O)/C(=N\O)c3csc(N)n3)[C@H]2SC1` [Cefdinir] stands inactive: -0.309; under `CC(C)C(=O)SCCCCC[C@H](NC(=O)OC(C)(C)C)C(=O)NC12CC3CC(CC(C3)C1)C2`, inactive: -1.14.

Take `c1ccc2c(CC3=NCCN3)cccc2c1` [Naphazoline hydrochloride]: the Z-score was inactive: -0.726. Under `c1ccc2c(CC3=NCCN3)cccc2c1` [Naphazoline·HCl] stands inactive: 0.266; under `CC(=O)OCC(=O)[C@@]12OC(C)(C)O[C@@H]1C[C@H]1[C@@H]3C[C@H](F)C4=CC(=O)C=C[C@]4(C)[C@@]3(F)[C@@H](O)C[C@@]12C` [Fluocinonide], inactive: 0.47; under `CCN(CC)CC(=O)Nc1c(C)cccc1C` [Lidocaine hydrochloride], inactive: -0.564. As for `CCN(CC)CC(=O)Nc1c(C)cccc1C` [Lidocaine·HCl·H2O], the Z-score is inactive: -1.14. Turning to `NS(=O)(=O)c1cc2c(cc1Cl)NC(C1CC3C=CC1C3)NS2(=O)=O` (stereo unspecified) [Cyclothiazide], the Z-score was inactive: -0.137. Under `S=C(S)N1CCCC1` [Ammonium pyrrolidine dithiocarbamate] stands inactive: -0.129; under `CSC(=N)NCCC[C@H](N)C(=O)O` [S-Methyl-L- thiocitrulline acetate], inactive: 0.356. For `C[C@@H]1O[C@@H](O[C@H]2[C@H](Oc3cc(O)c4c(=O)c(O)c(-c5ccc(O)cc5)oc4c3)O[C@H](CO)[C@@H](O)[C@@H]2O)[C@H](O)[C@H](O)[C@H]1O` [Kaempferol-7-neohesperidoside], the Z-score is inactive: -0.427.

As for `O=c1oc2c(O)c(O)cc3c(=O)oc4c(O)c(O)cc1c4c23` [Ellagic Acid], the Z-score is inactive: -1.82.

For the compound `O=c1oc2c(O)c(O)cc3c(=O)oc4c(O)c(O)cc1c4c23` [Ellagic acid], the Z-score was inactive: 0.178. Under `CC[C@@H]1C(=O)OC[C@@H]1Cc1cncn1C` [Pilocarpine·HCl] stands inactive: -1.91; under `CC[C@@H]1C(=O)OC[C@@H]1Cc1cncn1C` [Pilocarpine], inactive: -0.236. Under `CC[C@@H]1C(=O)OC[C@@H]1Cc1cncn1C` [Pilocarpine nitrate salt] stands inactive: 0.575. Under `CC[C@@H]1C(=O)OC[C@@H]1Cc1cncn1C` [(+)-Pilocarpine hydrochloride] stands inactive: 0.909; under `CN1C(=O)CC[C@H]1c1cccnc1` [(-)-Cotinine], inactive: -0.653. As to `CC(C)=CCC(OC(=O)C=C(C)C)C1=CC(=O)c2c(O)ccc(O)c2C1=O` (stereo not drawn) [(β,β-Dimethylacryl) Shikonin], the Z-score was inactive: 0.666. Under `CCn1c(=O)[nH]c2cc(Cl)c(Cl)cc21` stands inactive: -0.536; under `O=C(Nc1cc(C(F)(F)F)cc(C(F)(F)F)c1)Nc1c(Br)cc(Br)cc1-c1nn[nH]n1`, inactive: -0.12.

`OC[C@H]1O[C@@H](n2cnc3c(N[C@H]4CCC[C@@H]4O)ncnc32)[C@H](O)[C@@H]1O`: the Z-score was inactive: -0.269. With `NS(=O)(=O)c1cc2c(cc1C(F)(F)F)NCNS2(=O)=O` [Hydroflumethiazide], the Z-score was inactive: 0.553. Under `COC1(C2=NCCN2)COc2ccccc2O1` (stereo unspecified) stands inactive: -0.196. Turning to `N[C@@H](Cc1c[nH]c2ccccc12)C(=O)O` [L-Tryptophan], the Z-score was inactive: -0.842.

For the compound `Nc1cc(=O)[nH]c(N)n1` [2,4-Diamino-6-hydroxypyrimidine], the Z-score was inactive: -0.668.

In the case of `OCc1c[nH]c2ccccc12` [Indole-3-carbinol], the Z-score was inactive: -0.145. Under `O=C(/C=C/c1ccc(O)cc1)c1ccc(O)cc1O` [Isoliquiritigenin] stands inactive: 0.788; under `N#Cc1ccc(-c2csc(NN=C3CCCC3)n2)cc1` [Remodelin hydrobromide], inactive: -0.236; under `CS(=O)(=O)OCCCCOS(C)(=O)=O` [Busulfan], inactive: -0.162. Under `Cc1[nH]c(=O)c(C#N)cc1-c1ccc2nccn2c1` [Olprinone hydrochloride] stands inactive: -1.03; under `CC(=O)O[C@H]1C(=O)[C@@]2(C)[C@H]([C@H](OC(=O)c3ccccc3)[C@]3(O)C[C@H](OC(=O)[C@H](O)[C@@H](NC(=O)c4ccccc4)c4ccccc4)C(C)=C1C3(C)C)[C@]1(OC(C)=O)CO[C@@H]1C[C@@H]2O` [Paclitaxel (Taxol)], inactive: 0.0236; under `CC(=O)O[C@H]1C(=O)[C@@]2(C)[C@H]([C@H](OC(=O)c3ccccc3)[C@]3(O)C[C@H](OC(=O)[C@H](O)[C@@H](NC(=O)c4ccccc4)c4ccccc4)C(C)=C1C3(C)C)[C@]1(OC(C)=O)CO[C@@H]1C[C@@H]2O` [Taxol], inactive: 0.805. Under `COc1cccc2c1C(=O)c1c(O)c3c(c(O)c1C2=O)C[C@@](O)(C(=O)CO)C[C@@H]3O[C@H]1C[C@H](N)[C@@H](O)[C@H](C)O1` [Epirubicin·HCl] stands inactive: -0.568; under `N=C(N)c1ccc(N)cc1` [4-Amino benzamidine diHCl], inactive: 0.0978; under `CCCN(CCC)CCc1cccc2c1CC(=O)N2` [Ropinirole hydrochloride], inactive: -0.777.

For the compound `CCCN(CCC)CCc1cccc2c1CC(=O)N2` [Ropinirole·HCl], the Z-score is inactive: -0.751. As for `C=C(C)[C@@H]1CC[C@]2(CO)CC[C@]3(C)[C@H](CC[C@@H]4[C@@]5(C)CC[C@H](O)C(C)(C)[C@@H]5CC[C@]43C)[C@@H]12` [Betulin], the Z-score was inactive: 0.143.

Regarding `CCCCC[C@H](O)/C=C/[C@H]1[C@H](O)CC(=O)[C@@H]1C/C=C\CCCC(=O)O` [Dinoprostone], the Z-score was inactive: -1.18. Regarding `CCCCC[C@H](O)/C=C/[C@H]1[C@H](O)CC(=O)[C@@H]1C/C=C\CCCC(=O)O` [Prostaglandin E2], the Z-score was inactive: -0.666.

For `CCCn1c(=O)c2[nH]c(C3CCCC3)nc2n(CCC)c1=O` [8-Cyclopentyl-1,3- dipropylxanthine], the Z-score was inactive: -0.26. Under `N/C(=N\C(=O)c1nc(Cl)c(N)nc1N)NCc1ccccc1` [Benzamil hydrochloride] stands inactive: 2.49. Under `O=C(CCNNC(=O)c1ccncc1)NCc1ccccc1` [Nialamide] stands inactive: 0.131. Under `Cc1nc2ccccn2c(=O)c1CCN1CCC(C(=O)c2ccc(F)cc2)CC1` [Pirenperone] stands inactive: 0.168. On to `Cc1ccccc1N1CCN(CCc2nnc3n2CCCC3)CC1` [Dapiprazole hydrochloride], for which the Z-score was inactive: -0.268. Under `CCC(=O)c1ccc2c(c1)N(CCCN(C)C)c1ccccc1S2` [Propionylpromazine HCl] stands inactive: -0.738; under `Nc1ccc(-c2ccc3ncc4ccc(=O)n(-c5cccc(C(F)(F)F)c5)c4c3c2)cn1` [Torin2], inactive: 2.01.
